# In US20240115705A1, “Regulation of Butyrophilin subfamily 3 member A1 (BTN3A1, CD277)” (The J. Gladstone Institutes, a testamentary trust …, priority 2021, published 2024):
# At least one compound was matched to its structure with a doubt left.
# Legend:
# BTN3A [1] = experiment: Glucose and pyruvate dose response, surface BTN3A in Daudi-Cas9 KO cells; assay type: cell-based, human; conditions: OXPHOS KOs (TIMMDC1, NDUFA2), increasing levels in glutamine-containing media lacking glucose and pyruvate, 72 hours
# BTN3A [2] = experiment: mTOR/ISR compound treatment, surface BTN3A by flow cytometry in AAVS1 and PPAT KO Daudi-Cas9 cells; assay type: cell-based, human; conditions: control KO (AAVS1) and purine biosynthesis KO (PPAT) Daudi-Cas9 cells, 10 μM, 72 hours
# Experimental: Daudi-Cas9 AAVS1 and PPAT KO cells (190 μL) were seeded at 250,000 cells/mL in round-bottom 96-well plates. Cells received 10 μL of DMSO (vehicle) or one of the following compounds at a final concentration of 10 μM: sephin1 (APE×BIO), ISRIB (MedChemExpress), guanabenz acetate (MedChemExpress), Sal003 (MedChemExpress), salubrinal (MedChemExpress), raphin1 acetate (MedChemExpress), and rapamycin (MilliporeSigma). Edge wells were filled with 200 μL of sterile PBS or water. After being cultured for 72 hours, the cells were stained with APC-conjugated anti-human CD277 antibody (clone BT3.1, 1:50 dilution) (Miltenyi Biotec) and 7-AAD (1:150 dilution) (Tonbo), and analyzed on the Attune NxT flow cytometer.
compound,measurement,setting,value
CC(=O)C(=O)O [pyruvate],BTN3A surface expression,BTN3A [1],No such effect was observed
CO[C@H]1C[C@@H]2CC[C@@H](C)[C@@](O)(O2)C(=O)C(=O)N2CCCC[C@H]2C(=O)O[C@H]([C@H](C)C[C@@H]2CC[C@@H](O)[C@H](OC)C2)CC(=O)[C@H](C)/C=C(\C)[C@@H](O)[C@@H](OC)C(=O)[C@H](C)C[C@H](C)/C=C/C=C/C=C/1C [rapamycin],BTN3A surface expression,BTN3A [2],negligible effects
